Source: publication PMC11447106 (Clinical and Translational Medicine, 2024)
Results are given in words; binding and its absence hold for the method and conditions named. For part of these data: Binding seen in cells or lysates may run through a third protein. Some binding calls cover weakened binding; strength is not graded here. Where a sequence is shown, tags or fusion partners need not be part of it.

Columns and labels:
[1] = biological target: T1, Nuclear transcription factor erythroid 2p45 (NF-E2)-related factor 2 (NRF2), endogenous (human (endogenous in NCI-H1299)) (UniProt Q16236); assay: co-IP; NCI-H1299 cells expressing Flag-tagged OGT^WT, OGT^T444E or OGT^T444A; NRF2 detected by immunoblot
T1 sequence: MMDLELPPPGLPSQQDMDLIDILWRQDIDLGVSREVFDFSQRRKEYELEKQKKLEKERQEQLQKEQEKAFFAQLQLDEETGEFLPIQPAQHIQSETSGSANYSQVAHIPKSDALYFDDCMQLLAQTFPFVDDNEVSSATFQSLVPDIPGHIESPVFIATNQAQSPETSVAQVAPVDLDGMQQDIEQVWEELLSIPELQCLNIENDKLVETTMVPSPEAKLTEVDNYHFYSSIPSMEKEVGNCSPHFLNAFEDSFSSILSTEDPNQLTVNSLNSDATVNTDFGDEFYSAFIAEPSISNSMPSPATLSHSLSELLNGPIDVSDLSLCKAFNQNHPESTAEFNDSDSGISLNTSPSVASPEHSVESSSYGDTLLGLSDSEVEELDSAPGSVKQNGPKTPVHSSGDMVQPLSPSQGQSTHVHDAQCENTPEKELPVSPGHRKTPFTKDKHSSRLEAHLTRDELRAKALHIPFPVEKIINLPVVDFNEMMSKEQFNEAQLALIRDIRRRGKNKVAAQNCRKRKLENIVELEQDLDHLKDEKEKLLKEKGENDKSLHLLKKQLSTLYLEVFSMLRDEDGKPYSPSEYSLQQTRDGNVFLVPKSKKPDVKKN

[2] = biological target: T1, Nuclear transcription factor erythroid 2p45 (NF-E2)-related factor 2 (NRF2), endogenous (human (endogenous in NCI-H1299)); assay: co-IP; endogenous proteins of NCI-H1299 (or NCI-H1299^NRF2-WT / NCI-H1299^NRF2-S103A) cells; NP40 lysis solution with 40 mM GlcNAc, 10 µM PUGNAc, 2 mM STZ, 10 µM Thiamet G and protease inhibitors; primary antibody with protein A/G beads overnight, five washes, immunoblot; cells untreated or treated with Thiamet G (2 µM, 2 h), H2O2 (50 µM, 45 min), AICAR (1 mM, 1 h), A-769662 (50 µM, 1 h) or cisplatin (10 µM, 2 h)
[3] = biological target: T2, GST-NRF2 (GST-tagged NRF2^WT, expressed without OGT; naked recombinant NRF2) (UniProt Q16236); assay: pull-down; in vitro GST pull-down with purified recombinant GST-NRF2 and His-OGT; both purified
T2 sequence: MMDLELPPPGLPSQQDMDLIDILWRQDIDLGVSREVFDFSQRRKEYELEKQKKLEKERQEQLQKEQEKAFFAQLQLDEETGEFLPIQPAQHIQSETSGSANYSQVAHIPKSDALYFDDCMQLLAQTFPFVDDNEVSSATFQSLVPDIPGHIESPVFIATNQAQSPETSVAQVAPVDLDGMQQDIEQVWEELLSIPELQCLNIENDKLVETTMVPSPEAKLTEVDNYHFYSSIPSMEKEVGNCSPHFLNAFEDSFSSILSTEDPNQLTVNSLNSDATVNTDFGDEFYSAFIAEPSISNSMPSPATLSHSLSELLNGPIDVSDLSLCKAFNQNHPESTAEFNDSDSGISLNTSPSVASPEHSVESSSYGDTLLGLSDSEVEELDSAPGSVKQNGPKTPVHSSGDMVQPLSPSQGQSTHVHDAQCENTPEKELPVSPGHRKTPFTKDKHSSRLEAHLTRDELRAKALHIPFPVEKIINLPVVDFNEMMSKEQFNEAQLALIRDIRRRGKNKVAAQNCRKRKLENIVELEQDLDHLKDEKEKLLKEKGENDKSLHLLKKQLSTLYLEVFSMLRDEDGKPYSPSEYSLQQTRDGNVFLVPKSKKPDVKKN

B1: Flag-tagged OGT^T444E (enzyme, UniProt O15294-3 1-1036)
chain: MASSVGNVADSTGLAELAHREYQAGDFEAAERHCMQLWRQEPDNTGVLLLLSSIHFQCRRLDRSAHFSTLAIKQNPLLAEAYSNLGNVYKERGQLQEAIEHYRHALRLKPDFIDGYINLAAALVAAGDMEGAVQAYVSALQYNPDLYCVRSDLGNLLKALGRLEEAKACYLKAIETQPNFAVAWSNLGCVFNAQGEIWLAIHHFEKAVTLDPNFLDAYINLGNVLKEARIFDRAVAAYLRALSLSPNHAVVHGNLACVYYEQGLIDLAIDTYRRAIELQPHFPDAYCNLANALKEKGSVAEAEDCYNTALRLCPTHADSLNNLANIKREQGNIEEAVRLYRKALEVFPEFAAAHSNLASVLQQQGKLQEALMHYKEAIRISPTFADAYSNMGNTLKEMQDVQGALQCYTRAIQINPAFADAHSNLASIHKDSGNIPEAIASYREALKLKPDFPDAYCNLAHCLQIVCDWTDYDERMKKLVSIVADQLEKNRLPSVHPHHSMLYPLSHGFRKAIAERHGNLCLDKINVLHKPPYEHPKDLKLSDGRLRVGYVSSDFGNHPTSHLMQSIPGMHNPDKFEVFCYALSPDDGTNFRVKVMAEANHFIDLSQIPCNGKAADRIHQDGIHILVNMNGYTKGARNELFALRPAPIQAMWLGYPGTSGALFMDYIITDQETSPAEVAEQYSEKLAYMPHTFFIGDHANMFPHLKKKAVIDFKSNGHIYDNRIVLNGIDLKAFLDSLPDVKIVKMKCPDGGDNADSSNTALNMPVIPMNTIAEAVIEMINRGQIQITINGFSISNGLATTQINNKAATGEEVPRTIIVTTRSQYGLPEDAIVYCNFNQLYKIDPSTLQMWANILKRVPNSVLWLLRFPAVGEPNIQQYAQNMGLPQNRIIFSPVAPKEEHVRRGQLADVCLDTPLCNGHTTGMDVLWAGTPMVTMPGETLASRVAASQLTCLGCLELIAKNRQEYEDIAVKLGTDLEYLKKVRGKVWKQRISSPLFNTKQYTMELERLYLQMWEHYAAGNKPDHMIKPVEVTESA
[1]
  binding: binds

B2: N-acetylglucosamine transferase (OGT), endogenous (enzyme, UniProt O15294 1-1046)
chain: MASSVGNVADSTEPTKRMLSFQGLAELAHREYQAGDFEAAERHCMQLWRQEPDNTGVLLLLSSIHFQCRRLDRSAHFSTLAIKQNPLLAEAYSNLGNVYKERGQLQEAIEHYRHALRLKPDFIDGYINLAAALVAAGDMEGAVQAYVSALQYNPDLYCVRSDLGNLLKALGRLEEAKACYLKAIETQPNFAVAWSNLGCVFNAQGEIWLAIHHFEKAVTLDPNFLDAYINLGNVLKEARIFDRAVAAYLRALSLSPNHAVVHGNLACVYYEQGLIDLAIDTYRRAIELQPHFPDAYCNLANALKEKGSVAEAEDCYNTALRLCPTHADSLNNLANIKREQGNIEEAVRLYRKALEVFPEFAAAHSNLASVLQQQGKLQEALMHYKEAIRISPTFADAYSNMGNTLKEMQDVQGALQCYTRAIQINPAFADAHSNLASIHKDSGNIPEAIASYRTALKLKPDFPDAYCNLAHCLQIVCDWTDYDERMKKLVSIVADQLEKNRLPSVHPHHSMLYPLSHGFRKAIAERHGNLCLDKINVLHKPPYEHPKDLKLSDGRLRVGYVSSDFGNHPTSHLMQSIPGMHNPDKFEVFCYALSPDDGTNFRVKVMAEANHFIDLSQIPCNGKAADRIHQDGIHILVNMNGYTKGARNELFALRPAPIQAMWLGYPGTSGALFMDYIITDQETSPAEVAEQYSEKLAYMPHTFFIGDHANMFPHLKKKAVIDFKSNGHIYDNRIVLNGIDLKAFLDSLPDVKIVKMKCPDGGDNADSSNTALNMPVIPMNTIAEAVIEMINRGQIQITINGFSISNGLATTQINNKAATGEEVPRTIIVTTRSQYGLPEDAIVYCNFNQLYKIDPSTLQMWANILKRVPNSVLWLLRFPAVGEPNIQQYAQNMGLPQNRIIFSPVAPKEEHVRRGQLADVCLDTPLCNGHTTGMDVLWAGTPMVTMPGETLASRVAASQLTCLGCLELIAKNRQEYEDIAVKLGTDLEYLKKVRGKVWKQRISSPLFNTKQYTMELERLYLQMWEHYAAGNKPDHMIKPVEVTESA
[2]
  binding: binds

B3: His-OGT, recombinant (enzyme, UniProt O15294 1-1046)
chain: MASSVGNVADSTEPTKRMLSFQGLAELAHREYQAGDFEAAERHCMQLWRQEPDNTGVLLLLSSIHFQCRRLDRSAHFSTLAIKQNPLLAEAYSNLGNVYKERGQLQEAIEHYRHALRLKPDFIDGYINLAAALVAAGDMEGAVQAYVSALQYNPDLYCVRSDLGNLLKALGRLEEAKACYLKAIETQPNFAVAWSNLGCVFNAQGEIWLAIHHFEKAVTLDPNFLDAYINLGNVLKEARIFDRAVAAYLRALSLSPNHAVVHGNLACVYYEQGLIDLAIDTYRRAIELQPHFPDAYCNLANALKEKGSVAEAEDCYNTALRLCPTHADSLNNLANIKREQGNIEEAVRLYRKALEVFPEFAAAHSNLASVLQQQGKLQEALMHYKEAIRISPTFADAYSNMGNTLKEMQDVQGALQCYTRAIQINPAFADAHSNLASIHKDSGNIPEAIASYRTALKLKPDFPDAYCNLAHCLQIVCDWTDYDERMKKLVSIVADQLEKNRLPSVHPHHSMLYPLSHGFRKAIAERHGNLCLDKINVLHKPPYEHPKDLKLSDGRLRVGYVSSDFGNHPTSHLMQSIPGMHNPDKFEVFCYALSPDDGTNFRVKVMAEANHFIDLSQIPCNGKAADRIHQDGIHILVNMNGYTKGARNELFALRPAPIQAMWLGYPGTSGALFMDYIITDQETSPAEVAEQYSEKLAYMPHTFFIGDHANMFPHLKKKAVIDFKSNGHIYDNRIVLNGIDLKAFLDSLPDVKIVKMKCPDGGDNADSSNTALNMPVIPMNTIAEAVIEMINRGQIQITINGFSISNGLATTQINNKAATGEEVPRTIIVTTRSQYGLPEDAIVYCNFNQLYKIDPSTLQMWANILKRVPNSVLWLLRFPAVGEPNIQQYAQNMGLPQNRIIFSPVAPKEEHVRRGQLADVCLDTPLCNGHTTGMDVLWAGTPMVTMPGETLASRVAASQLTCLGCLELIAKNRQEYEDIAVKLGTDLEYLKKVRGKVWKQRISSPLFNTKQYTMELERLYLQMWEHYAAGNKPDHMIKPVEVTESA
[3]
  binding: binds
